Measurements reported in PubChem BioAssay AID1508597 (Cure First, 2020)

Assay: 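Knock-downs altering ovarian cancer cell survival with or without PARP inhibitor rucaparib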 (primary screen)
Cells: human ovarian carcinoma lines grown from tumours: OCI-P5x (papillary serous) and OCI-C5x (clear cell)
Reagent: siRNA pool against human genes, 1.25 pmol siRNA per well
Time to read-out: 72 h or 96 h, depending on the cell culture
Challenge: rucaparib 20 µM (about IC30) or vehicle, present until read-out
Rucaparib or vehicle: Vehicle
Cell line: OCI-C5x (clear cell)
Detection: 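ATP luminescence measured at 72 or 96 h according to the culture, then normalised and expressed as percent viability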
Direction: viability, normalised: higher = more viable cells remaining
Active means: 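Active when normalised viability falls below 80 percent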
Calls: active = viability under 80%; inactive = viability 80% or more
This is a random part of the about 2,100 reagents, under one of the conditions tested. 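Calls flag viability under 80% in either arm, not effects specific to rucaparib; the reference for percent is not stated.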 Entries without a mark were called inactive. Some reagents were tested in more than one well and are listed for each. Reagent sequences are not shown. Not given: the 100% reference.

PAPSS2 (GeneID 9060) [SID405527888], technical replicate 1 | viability, normalised (%): 65.1 (active)
PAPSS2 (GeneID 9060) [SID405527888], technical replicate 2 | viability, normalised (%): 49.3 (active)
PAPSS2 (GeneID 9060) [SID405527888], technical replicate 3 | viability, normalised (%): 57 (active)
RDM1 (GeneID 201299) [SID405528422], technical replicate 1 | viability, normalised (%): 49.2 (active)
RDM1 (GeneID 201299) [SID405528422], technical replicate 2 | viability, normalised (%): 42.9 (active)
RDM1 (GeneID 201299) [SID405528422], technical replicate 3 | viability, normalised (%): 49.9 (active)
PDZD2 (GeneID 23037) [SID405527725], technical replicate 1 | viability, normalised (%): 46.5 (active)
PDZD2 (GeneID 23037) [SID405527725], technical replicate 2 | viability, normalised (%): 41.6 (active)
PDZD2 (GeneID 23037) [SID405527725], technical replicate 3 | viability, normalised (%): 55.9 (active)
TDRD3 (GeneID 81550) [SID405526544], technical replicate 1 | viability, normalised (%): 43.4 (active)
TDRD3 (GeneID 81550) [SID405526544], technical replicate 2 | viability, normalised (%): 43 (active)
TDRD3 (GeneID 81550) [SID405526544], technical replicate 3 | viability, normalised (%): 44.9 (active)
JMJD8 (GeneID 339123) [SID405526920], technical replicate 1 | viability, normalised (%): 53.3 (active)
JMJD8 (GeneID 339123) [SID405526920], technical replicate 2 | viability, normalised (%): 47.5 (active)
JMJD8 (GeneID 339123) [SID405526920], technical replicate 3 | viability, normalised (%): 64.4 (active)
DGKD (GeneID 8527) [SID405527392], technical replicate 1 | viability, normalised (%): 63 (active)
DGKD (GeneID 8527) [SID405527392], technical replicate 2 | viability, normalised (%): 56.3 (active)
DGKD (GeneID 8527) [SID405527392], technical replicate 3 | viability, normalised (%): 89.6
SMNDC1 (GeneID 10285) [SID405527345], technical replicate 1 | viability, normalised (%): 48.5 (active)
SMNDC1 (GeneID 10285) [SID405527345], technical replicate 2 | viability, normalised (%): 50.9 (active)
SMNDC1 (GeneID 10285) [SID405527345], technical replicate 3 | viability, normalised (%): 46.5 (active)
MAPK10 (GeneID 5602) [SID405527407], technical replicate 1 | viability, normalised (%): 63.6 (active)
MAPK10 (GeneID 5602) [SID405527407], technical replicate 2 | viability, normalised (%): 75.5 (active)
MAPK10 (GeneID 5602) [SID405527407], technical replicate 3 | viability, normalised (%): 82.9
ROBO1 (GeneID 6091) [SID405527257], technical replicate 1 | viability, normalised (%): 33.7 (active)
ROBO1 (GeneID 6091) [SID405527257], technical replicate 2 | viability, normalised (%): 43.9 (active)
ROBO1 (GeneID 6091) [SID405527257], technical replicate 3 | viability, normalised (%): 40.1 (active)

Reformatted: 6 of the entries above.
gene | PubChem SID | technical replicate | viability, normalised (%)
JMJD8 (GeneID 339123) | SID405526920 | 3 | 64.4 (active)
DGKD (GeneID 8527) | SID405527392 | 1 | 63 (active)
DGKD (GeneID 8527) | SID405527392 | 2 | 56.3 (active)
DGKD (GeneID 8527) | SID405527392 | 3 | 89.6
SMNDC1 (GeneID 10285) | SID405527345 | 1 | 48.5 (active)
SMNDC1 (GeneID 10285) | SID405527345 | 2 | 50.9 (active)

Further records follow:
MBD4 (GeneID 8930) [SID405526972], technical replicate 1 | viability, normalised (%): 47 (active)
MBD4 (GeneID 8930) [SID405526972], technical replicate 1 | viability, normalised (%): 58.1 (active)
MBD4 (GeneID 8930) [SID405526972], technical replicate 2 | viability, normalised (%): 43 (active)
MBD4 (GeneID 8930) [SID405526972], technical replicate 2 | viability, normalised (%): 62 (active)
MBD4 (GeneID 8930) [SID405526972], technical replicate 3 | viability, normalised (%): 61.4 (active)
MBD4 (GeneID 8930) [SID405526972], technical replicate 3 | viability, normalised (%): 42.9 (active)
NONO (GeneID 4841) [SID405528459], technical replicate 1 | viability, normalised (%): 38.1 (active)
NONO (GeneID 4841) [SID405528459], technical replicate 2 | viability, normalised (%): 37.7 (active)
NONO (GeneID 4841) [SID405528459], technical replicate 3 | viability, normalised (%): 45.6 (active)
NUP98 (GeneID 4928) [SID405527097], technical replicate 1 | viability, normalised (%): 32.1 (active)
NUP98 (GeneID 4928) [SID405527097], technical replicate 1 | viability, normalised (%): 39.8 (active)
NUP98 (GeneID 4928) [SID405527097], technical replicate 2 | viability, normalised (%): 28.8 (active)
NUP98 (GeneID 4928) [SID405527097], technical replicate 2 | viability, normalised (%): 36.4 (active)
NUP98 (GeneID 4928) [SID405527097], technical replicate 3 | viability, normalised (%): 27.6 (active)
NUP98 (GeneID 4928) [SID405527097], technical replicate 3 | viability, normalised (%): 37.8 (active)
